According to patent US20090053807A1 (Novo Nordisk A/S, priority 1998, published 2009):
Not every detail of the peptide structures is certain; ends, links or a residue may be inferred. No end group written: not given here.

Chains of the proteins cited; added tags and fusions are not shown. Residues count along the entry.
UniProt P06213, 28-758 limits assumed, stated change not applied: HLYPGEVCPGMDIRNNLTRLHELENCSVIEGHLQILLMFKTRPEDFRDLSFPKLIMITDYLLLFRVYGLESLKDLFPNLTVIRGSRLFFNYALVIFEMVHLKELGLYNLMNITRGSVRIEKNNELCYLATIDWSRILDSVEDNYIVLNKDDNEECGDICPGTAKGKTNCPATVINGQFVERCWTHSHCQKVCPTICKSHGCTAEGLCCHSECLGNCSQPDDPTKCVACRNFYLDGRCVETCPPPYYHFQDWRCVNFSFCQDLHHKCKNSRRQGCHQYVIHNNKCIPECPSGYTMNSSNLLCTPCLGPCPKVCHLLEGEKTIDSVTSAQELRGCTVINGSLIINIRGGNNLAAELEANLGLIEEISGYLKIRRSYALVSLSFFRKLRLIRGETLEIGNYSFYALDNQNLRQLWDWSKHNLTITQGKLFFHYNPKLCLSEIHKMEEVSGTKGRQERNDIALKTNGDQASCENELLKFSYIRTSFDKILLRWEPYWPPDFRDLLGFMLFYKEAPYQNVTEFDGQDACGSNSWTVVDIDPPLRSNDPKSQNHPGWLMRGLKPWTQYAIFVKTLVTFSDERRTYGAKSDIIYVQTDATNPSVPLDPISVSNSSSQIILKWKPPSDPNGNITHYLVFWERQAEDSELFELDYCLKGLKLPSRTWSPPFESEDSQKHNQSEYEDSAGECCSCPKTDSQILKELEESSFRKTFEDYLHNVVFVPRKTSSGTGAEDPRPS
UniProt P06213, 763-956 limits assumed, stated change not applied: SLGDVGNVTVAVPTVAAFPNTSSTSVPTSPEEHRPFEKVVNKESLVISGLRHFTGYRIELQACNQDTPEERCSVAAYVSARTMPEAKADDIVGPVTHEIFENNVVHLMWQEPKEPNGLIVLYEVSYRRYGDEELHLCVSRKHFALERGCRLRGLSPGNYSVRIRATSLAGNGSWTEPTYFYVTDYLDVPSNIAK
UniProt P08069, 741-935 limits assumed: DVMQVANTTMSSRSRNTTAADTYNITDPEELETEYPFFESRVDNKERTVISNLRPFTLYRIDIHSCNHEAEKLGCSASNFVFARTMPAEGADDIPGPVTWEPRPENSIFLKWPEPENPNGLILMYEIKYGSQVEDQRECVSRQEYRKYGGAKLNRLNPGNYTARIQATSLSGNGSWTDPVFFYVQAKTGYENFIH
UniProt P08069, 31-736 limits assumed: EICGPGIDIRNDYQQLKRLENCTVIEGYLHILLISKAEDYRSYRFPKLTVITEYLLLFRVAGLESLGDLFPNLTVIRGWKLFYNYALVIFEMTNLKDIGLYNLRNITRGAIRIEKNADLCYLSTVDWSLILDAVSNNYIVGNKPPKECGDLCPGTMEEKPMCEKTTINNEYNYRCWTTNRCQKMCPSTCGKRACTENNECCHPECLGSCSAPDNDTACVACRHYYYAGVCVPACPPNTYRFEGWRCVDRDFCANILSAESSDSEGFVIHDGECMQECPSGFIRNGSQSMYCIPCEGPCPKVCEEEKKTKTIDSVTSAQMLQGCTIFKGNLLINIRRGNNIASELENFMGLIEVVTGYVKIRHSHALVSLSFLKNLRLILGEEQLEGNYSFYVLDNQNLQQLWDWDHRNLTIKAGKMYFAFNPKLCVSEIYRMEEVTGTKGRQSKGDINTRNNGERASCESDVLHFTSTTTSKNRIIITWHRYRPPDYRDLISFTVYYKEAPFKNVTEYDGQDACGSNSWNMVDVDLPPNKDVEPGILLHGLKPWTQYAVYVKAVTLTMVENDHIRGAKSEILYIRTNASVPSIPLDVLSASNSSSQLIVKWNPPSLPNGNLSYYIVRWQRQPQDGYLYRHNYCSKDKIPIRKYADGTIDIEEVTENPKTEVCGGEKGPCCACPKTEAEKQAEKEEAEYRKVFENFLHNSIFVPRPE

Legend:
[1] = biological target: T1, soluble human insulin receptor-immunoglobulin heavy chain chimera (sIR-Fc) (Homo sapiens, UniProt P06213); test: Fluorescence polarization competition with FITC-RP9, sIR-Fc; type: binding; details: FP, FITC-RP9, summary of Table 22
T1 construct: replacing the transmembrane domain and the intracellular domain of IR with constant domains from immunoglobulin Fc or λ subunits; made in house; host or cells: human embryonic kidney 293 cells (as described for the Bass construct)

IGF-1R = IGF-1R (Homo sapiens, UniProt P08069); details: TR-FRET at rhIGF-1R versus FP at sIR-Fc, summary of Table 22
[2] = tested on: FDC-P2 cells expressing the IL-3 and human IGF-1R receptors

| Compound | affinity / potency at IR [1] | binding ratio for IGF-1R over IR (IGF-1R) | ED50, agonist activity at IGF-1R [2] |
| --- | --- | --- | --- |
| CC(C)C[C@H](NC(=O)[C@H](CCC(N)=O)NC(=O)[C@H](CCCNC(=N)N)NC(=O)[C@H](CCC(=O)O)NC(=O)[C@H](Cc1ccccc1)NC(=O)[C@H](Cc1c[nH]c2ccccc12)NC(=O)[C@H](CC(=O)O)NC(=O)[C@H](Cc1ccc(O)cc1)NC(=O)[C@H](Cc1ccccc1)NC(=O)[C@H](CO)NC(=O)[C@H](CCC(=O)O)NC(=O)[C@H](CC(=O)O)NC(=O)[C@H](CC(C)C)NC(=O)[C@H](CO)NC(=O)CN)C(=O)NCC(=O)N[C@@H](CCCCN)C(=O)N[C@@H](CCCCN)C(=O)O [Peptide S371] | slightly less potent | – | – |
| DYKDFYDAIDQLVRGSARAGGTRDKK [Peptide 20E2] | slightly less potent | lower binding ratios for IGF-1R over IR | > 10 µM |
